For at least one compound, name, drawing or mass did not settle the structure. Ends that are not written are not given here.
Tested on: HL60 promyelocytic leukemia (PML) cells
Experiment: Annexin V/PI cell viability assay in HL60 cells
Format: cell-based, human
Details: HL-60
Method: ST-3, reconstituted at a concentration of 10 mg/mL in 20 mM His, pH 7.5, was added to each well at a volume of 50 μL to a final concentration range of 0-80 μM. Cells were incubated with ST-3 for 48 hours at 37° C. Cell viability was quantified by flow cytometry using an Annexin V FITC apoptosis detection kit from Abcam. Briefly, cells were washed with PBS and resuspended in 1× assay buffer containing Annexin V FITC and propidium iodide (PI). Annexin V detects apoptotic cells, and PI stains dead cells. After staining, apoptotic cells show green fluorescence, dead cells show red and green fluorescence, and live cells show little or no fluorescence. Cells were selected for analysis based on forward scatter (FSC) vs. side scatter (SSC), and analyzed by BD Accuri C6 Plus flow cytometer to detect Annexin V-FITC binding (Ex=488 nm; Em=530 nm) using FITC signal detector and PI staining by the phycoerythrin emission signal detector. Percentage of Annexin V^low and PI^low were quantified and presented as % Viability.

## YGRKKRRQRRLEGECQGLEARNRELKERAESV [ATF5 Polypeptide with Tat CPP]
10 μM
  % Viability: 81.9%
20 μM
  % Viability: 66.4%
30 μM
  % Viability: 62.1%
40 μM
  % Viability: 54.4%

— patent US10316077B2, “Cell-penetrating ATF5 polypeptides and uses thereof” (Sapience Therapeutics, Inc., priority 2017, dated 2019)
